PubChem BioAssay AID504774, Drosophila RNAi Screening Center, 2011
In all, the deposit lists about 23,000 reagents; shown is a random part of those with a known target gene and a result. 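Values are quantile-normalised luminescence on an arbitrary scale; higher means more cells surviving MMS.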 Not all columns of the deposit are shown.

- Assay: 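Genes required for cells to withstand methyl methanesulphonate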 (primary screen)
- Cell system: Drosophila Kc167 cells
- Knock-down reagent: long dsRNA against Drosophila genes, about 0.25 µg dsRNA per well
- Duration: about 6 days: 3 days knock-down, then 3 days with or without MMS
- Challenge: methyl methanesulphonate 0.004% (w/v) for 3 days after knock-down
- Read-out: 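ATP-dependent luminescence as a measure of live cells in MMS-exposed wells, quantile normalised within each plate, with replicate values also given as a mean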
- Reading the numbers: mean viability with MMS: higher = more surviving cells after MMS

mean viability with MMS, by target and reagent
CG13558 (GeneID 37719): DRSC04196 3.60e6
Apc (GeneID 44642): DRSC14114 3.51e6
CG1602 (GeneID 35684): DRSC06601 3.60e6
Muc18B (GeneID 32913): DRSC20064 3.57e6; DRSC21644 3.65e6
Gr58c (GeneID 37501): DRSC04136 3.59e6
AstA-R1 (GeneID 44126): DRSC17278 3.53e6; DRSC17727 3.63e6
CG4892 (GeneID 34949): DRSC01937 3.55e6
CG32071 (GeneID 39246): DRSC22298 3.53e6
CG30340 (GeneID 246550): DRSC05167 3.47e6
Atac1 (GeneID 33977): DRSC03155 3.79e6
CG8236 (GeneID 41047): DRSC16399 3.39e6
Npc2c (GeneID 41233): DRSC15523 3.56e6
CG8813 (GeneID 33490): DRSC00706 3.68e6
unc-13-4A (GeneID 38801): DRSC10201 3.79e6; DRSC10202 3.64e6; DRSC10203 2.83e6; DRSC11013 3.72e6
Pli (GeneID 42821): DRSC16792 3.35e6
Pal1 (GeneID 36033): DRSC06106 3.64e6
CG15743 (GeneID 32279): DRSC19709 3.70e6
GstT4 (GeneID 32299): DRSC19757 3.46e6
CycT (GeneID 39961): DRSC11124 2.99e6; DRSC23304 2.27e6
Prosbeta4R2 (GeneID 33451): DRSC00503 3.63e6
CG3652 (GeneID 33643): DRSC00624 3.65e6
CG8668 (GeneID 34107): DRSC03101 3.57e6
